Paper PMC7513858
Results are given in words; binding and its absence hold for the method and conditions named. Binding seen in cells or lysates may run through a third protein. Some entries that bind do so weakly or less than the wild type.

Sequences of proteins named here, by UniProt entry; tags and fusion partners are left off. Residues count along the entry.
UniProt P53712, residues 21-798: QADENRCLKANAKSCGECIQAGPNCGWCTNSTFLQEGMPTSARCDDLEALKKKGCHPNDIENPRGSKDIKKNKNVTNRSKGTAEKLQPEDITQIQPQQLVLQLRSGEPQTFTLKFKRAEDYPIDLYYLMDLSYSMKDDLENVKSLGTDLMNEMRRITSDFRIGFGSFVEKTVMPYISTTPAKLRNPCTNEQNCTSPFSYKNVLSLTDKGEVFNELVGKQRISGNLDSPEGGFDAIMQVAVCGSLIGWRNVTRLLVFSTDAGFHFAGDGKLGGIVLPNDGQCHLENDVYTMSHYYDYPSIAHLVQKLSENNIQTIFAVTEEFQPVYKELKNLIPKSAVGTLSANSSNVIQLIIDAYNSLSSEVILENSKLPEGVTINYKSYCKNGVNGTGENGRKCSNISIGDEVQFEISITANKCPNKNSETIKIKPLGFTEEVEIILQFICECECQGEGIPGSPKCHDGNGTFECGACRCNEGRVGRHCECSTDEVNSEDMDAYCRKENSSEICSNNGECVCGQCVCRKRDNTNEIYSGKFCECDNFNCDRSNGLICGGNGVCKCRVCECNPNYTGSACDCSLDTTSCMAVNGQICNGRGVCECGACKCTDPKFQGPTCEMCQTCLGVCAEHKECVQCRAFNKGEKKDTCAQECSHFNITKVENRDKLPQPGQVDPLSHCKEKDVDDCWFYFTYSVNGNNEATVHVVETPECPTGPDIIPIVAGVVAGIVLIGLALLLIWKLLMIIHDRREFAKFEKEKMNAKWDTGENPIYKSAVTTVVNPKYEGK

B1: Fibronectin type III domain-containing 4 (protein, UniProt A6QPL2 41-230)
chain: DRPPSPVNVTVTHLRANSATVSWDVPEGNIVIGYSISQQRQNGPGQRVIREVNTTTRACALWGLAEDSDYTVQVRSIGLRGESPPGPRVHFRTLKGSDRLPSNSSSPGDITVEGLDGERPLQTGEVVIIVVVLLMWAAVIGLFCRQYDIIKDNDSNNNPKEKGKGPEQSPQGRPVGTRQKKSPSINTIDV

What was measured:
[1] = biological target: T1, Fibronectin type III domain-containing 4 (bovine (endogenous in bovine MDSCs; species of the cloned cDNA not stated)) (UniProt A6QPL2); experiment: co-IP; lysate (RIPA) of FNDC4-overexpressing, differentiated bovine MDSCs; anti-FNDC4 or anti-ITGβ1 and anti-IgG overnight at 4°C, protein A-agarose; western blot
T1 sequence: B1 chain

[2] = biological target: integrin β1 (bovine (endogenous in bovine MDSCs)) (UniProt P53712); experiment: as above

| Molecule | binding [1] | binding [2] |
| --- | --- | --- |
| integrin β1 (from UniProt P53712 21-798) (receptor) | binds |  |
| B1 |  | binds |
